The target in the test is T1, human V1aR (Homo sapiens, UniProt P37288).
T1 construct: expressed in transfected cells
Nature of the test: Agonist activity at vasopressin V1a receptors, cell-based FLIPR calcium assay. The following applies: read-out: Efficacy Avg. (%). Here is the method:
Efficacy (% MPE) is also determined as the percentage of maximal possible effect. This agonist assay utilizes cells from a stable cell line (HEK-flpin) expressing the vasopressin V1a receptor. Intracellular calcium increase in response to agonist is measured through real-time fluorescence of an intracellular calcium-sensitive dye. Cells are exposed to varying concentrations of test agonist compounds whereupon release of intracellular calcium is measured to determine the agonist potency and efficacy.
The cell line stably expresses the lacZ-Zeocin™ fusion gene and is designed for use with the Flp-In™ expression vector containing the gene of interest and the Flp recombinase expression plasmid, pOG44. The cell line contains a single integrated Flp Recombination Target (FRT) site from pFRT/lacZeo or pFRT/lacZeo2. […]
The cell plates were transferred to FLIPR Tetra, along with a 384 well V-bottom plate pre-loaded with half-log concentrations of test compounds at 10× final test concentrations. […] A baseline reading was taken at 1-second (s) intervals for 5s followed by the addition of 5 μl of 10× compounds (test, reference, or Blank). The agonist-induced fluorescence signal was then measured for 180 s with initial 120 readings at 1-second intervals followed by 20 readings at 3-second intervals. […]

By UniProt entry, the sequences of proteins in these tests, tags left out.
UniProt P37288, whole entry: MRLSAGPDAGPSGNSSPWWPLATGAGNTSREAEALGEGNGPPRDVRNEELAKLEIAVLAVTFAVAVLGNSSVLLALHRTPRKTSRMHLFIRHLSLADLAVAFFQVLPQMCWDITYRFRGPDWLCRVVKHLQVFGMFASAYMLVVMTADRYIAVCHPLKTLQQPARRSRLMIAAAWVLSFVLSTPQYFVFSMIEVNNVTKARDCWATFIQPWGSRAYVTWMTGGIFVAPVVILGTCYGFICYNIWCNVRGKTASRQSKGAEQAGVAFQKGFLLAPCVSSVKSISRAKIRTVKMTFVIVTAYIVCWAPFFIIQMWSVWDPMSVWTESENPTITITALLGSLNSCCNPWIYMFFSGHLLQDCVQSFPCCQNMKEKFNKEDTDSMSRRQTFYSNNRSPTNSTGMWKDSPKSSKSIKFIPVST

We go through one compound from patent US20160122386A1, “V1A RECEPTOR AGONISTS” (FERRING B.V., priority 2014, published 2016).

For `CC[C@H](C)[C@@H]1NC(=O)[C@H](Cc2ccccc2)NC(=O)[C@@H](N)CSSC[C@@H](C(=O)N2CCC[C@H]2C(=O)N[C@@H](CCNC(=O)[C@@H](N)CCCCNC(=O)[C@H](CCCCNC(C)=O)NC(=O)CC[C@H](NC(=O)[C@H](CCCNC(=N)N)NC(=O)[C@@H]2CCCN2C(=O)[C@H](C)NC(=O)[C@H](CC(N)=O)NC(=O)[C@H](CCC(N)=O)NC(=O)[C@H](Cc2ccccc2)NC(=O)[C@@H](Cc2ccc(OC)cc2)NC(=O)Cc2ccccc2)C(N)=O)C(=O)NCC(N)=O)NC(=O)[C@H](CC(N)=O)NC(=O)[C@H](CCC(N)=O)NC1=O` [Compound 42], the Emax turned out to be 37%.
